These are yes or no findings as the source states them, for the method shown. In cells and extracts the contact can be indirect. Some binding calls cover weakened binding; strength is not graded here. For some of these results: Where a sequence is shown, tags or fusion partners need not be part of it.

Sequences of proteins named here, by UniProt entry; tags and fusion partners are left off.
UniProt Q09472: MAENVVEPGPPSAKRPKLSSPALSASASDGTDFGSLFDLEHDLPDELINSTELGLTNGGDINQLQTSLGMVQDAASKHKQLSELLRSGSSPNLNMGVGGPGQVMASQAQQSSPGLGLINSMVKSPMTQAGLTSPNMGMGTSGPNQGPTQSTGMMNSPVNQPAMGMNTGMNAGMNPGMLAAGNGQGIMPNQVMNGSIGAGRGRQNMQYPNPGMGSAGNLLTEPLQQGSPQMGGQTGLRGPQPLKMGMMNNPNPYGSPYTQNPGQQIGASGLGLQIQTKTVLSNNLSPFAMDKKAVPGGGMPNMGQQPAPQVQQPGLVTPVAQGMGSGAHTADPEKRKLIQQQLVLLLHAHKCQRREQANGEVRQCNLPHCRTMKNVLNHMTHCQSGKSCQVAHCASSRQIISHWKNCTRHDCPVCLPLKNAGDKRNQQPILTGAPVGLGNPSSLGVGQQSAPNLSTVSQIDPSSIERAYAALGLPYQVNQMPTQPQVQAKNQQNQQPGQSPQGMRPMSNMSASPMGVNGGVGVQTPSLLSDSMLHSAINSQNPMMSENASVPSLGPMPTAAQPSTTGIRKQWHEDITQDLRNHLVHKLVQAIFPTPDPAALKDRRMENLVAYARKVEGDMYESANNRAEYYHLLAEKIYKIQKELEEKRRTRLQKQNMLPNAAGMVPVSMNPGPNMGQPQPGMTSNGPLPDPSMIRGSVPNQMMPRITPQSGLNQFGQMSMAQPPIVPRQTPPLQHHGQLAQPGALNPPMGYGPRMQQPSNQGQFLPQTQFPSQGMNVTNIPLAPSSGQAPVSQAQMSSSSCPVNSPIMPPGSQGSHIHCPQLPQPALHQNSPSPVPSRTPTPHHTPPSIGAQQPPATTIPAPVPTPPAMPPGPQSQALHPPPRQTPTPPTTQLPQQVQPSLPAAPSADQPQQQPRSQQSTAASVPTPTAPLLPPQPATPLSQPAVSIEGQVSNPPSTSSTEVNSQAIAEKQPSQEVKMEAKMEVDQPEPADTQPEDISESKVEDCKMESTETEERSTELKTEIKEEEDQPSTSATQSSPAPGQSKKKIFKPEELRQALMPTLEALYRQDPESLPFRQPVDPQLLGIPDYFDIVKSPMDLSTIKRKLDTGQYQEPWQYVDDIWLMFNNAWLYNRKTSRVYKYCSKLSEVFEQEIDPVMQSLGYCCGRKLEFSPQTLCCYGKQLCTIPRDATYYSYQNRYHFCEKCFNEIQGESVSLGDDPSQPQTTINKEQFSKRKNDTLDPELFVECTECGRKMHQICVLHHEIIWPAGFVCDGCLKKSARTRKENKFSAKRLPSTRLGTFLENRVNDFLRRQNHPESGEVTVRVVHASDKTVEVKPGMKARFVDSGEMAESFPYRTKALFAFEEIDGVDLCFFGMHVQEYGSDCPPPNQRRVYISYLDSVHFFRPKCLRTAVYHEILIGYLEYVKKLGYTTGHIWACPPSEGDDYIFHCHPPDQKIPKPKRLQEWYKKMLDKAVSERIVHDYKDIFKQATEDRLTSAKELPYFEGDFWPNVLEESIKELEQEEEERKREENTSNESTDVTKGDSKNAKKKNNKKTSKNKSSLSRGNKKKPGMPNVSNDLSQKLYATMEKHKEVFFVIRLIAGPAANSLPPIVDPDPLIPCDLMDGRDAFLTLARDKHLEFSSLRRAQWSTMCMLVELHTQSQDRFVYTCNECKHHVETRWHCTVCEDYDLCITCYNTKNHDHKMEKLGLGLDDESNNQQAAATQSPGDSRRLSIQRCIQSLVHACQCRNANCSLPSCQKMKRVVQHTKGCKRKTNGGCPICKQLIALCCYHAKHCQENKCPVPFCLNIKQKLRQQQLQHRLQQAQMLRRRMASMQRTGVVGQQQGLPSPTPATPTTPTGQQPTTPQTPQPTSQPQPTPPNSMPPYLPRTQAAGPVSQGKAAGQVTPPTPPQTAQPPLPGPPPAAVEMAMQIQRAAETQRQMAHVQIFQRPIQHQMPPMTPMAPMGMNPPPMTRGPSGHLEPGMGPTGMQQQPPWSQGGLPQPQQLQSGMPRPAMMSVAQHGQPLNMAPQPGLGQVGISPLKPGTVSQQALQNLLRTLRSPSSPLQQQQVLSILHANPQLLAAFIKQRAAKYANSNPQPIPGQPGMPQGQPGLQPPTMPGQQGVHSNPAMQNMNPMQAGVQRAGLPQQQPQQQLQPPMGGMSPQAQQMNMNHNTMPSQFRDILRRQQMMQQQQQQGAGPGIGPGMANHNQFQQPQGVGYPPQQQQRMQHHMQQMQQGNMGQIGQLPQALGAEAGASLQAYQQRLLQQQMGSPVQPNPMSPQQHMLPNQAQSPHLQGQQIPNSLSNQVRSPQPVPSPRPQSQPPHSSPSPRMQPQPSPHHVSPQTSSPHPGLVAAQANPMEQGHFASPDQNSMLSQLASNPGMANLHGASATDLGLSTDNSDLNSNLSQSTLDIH
UniProt Q9UBN7: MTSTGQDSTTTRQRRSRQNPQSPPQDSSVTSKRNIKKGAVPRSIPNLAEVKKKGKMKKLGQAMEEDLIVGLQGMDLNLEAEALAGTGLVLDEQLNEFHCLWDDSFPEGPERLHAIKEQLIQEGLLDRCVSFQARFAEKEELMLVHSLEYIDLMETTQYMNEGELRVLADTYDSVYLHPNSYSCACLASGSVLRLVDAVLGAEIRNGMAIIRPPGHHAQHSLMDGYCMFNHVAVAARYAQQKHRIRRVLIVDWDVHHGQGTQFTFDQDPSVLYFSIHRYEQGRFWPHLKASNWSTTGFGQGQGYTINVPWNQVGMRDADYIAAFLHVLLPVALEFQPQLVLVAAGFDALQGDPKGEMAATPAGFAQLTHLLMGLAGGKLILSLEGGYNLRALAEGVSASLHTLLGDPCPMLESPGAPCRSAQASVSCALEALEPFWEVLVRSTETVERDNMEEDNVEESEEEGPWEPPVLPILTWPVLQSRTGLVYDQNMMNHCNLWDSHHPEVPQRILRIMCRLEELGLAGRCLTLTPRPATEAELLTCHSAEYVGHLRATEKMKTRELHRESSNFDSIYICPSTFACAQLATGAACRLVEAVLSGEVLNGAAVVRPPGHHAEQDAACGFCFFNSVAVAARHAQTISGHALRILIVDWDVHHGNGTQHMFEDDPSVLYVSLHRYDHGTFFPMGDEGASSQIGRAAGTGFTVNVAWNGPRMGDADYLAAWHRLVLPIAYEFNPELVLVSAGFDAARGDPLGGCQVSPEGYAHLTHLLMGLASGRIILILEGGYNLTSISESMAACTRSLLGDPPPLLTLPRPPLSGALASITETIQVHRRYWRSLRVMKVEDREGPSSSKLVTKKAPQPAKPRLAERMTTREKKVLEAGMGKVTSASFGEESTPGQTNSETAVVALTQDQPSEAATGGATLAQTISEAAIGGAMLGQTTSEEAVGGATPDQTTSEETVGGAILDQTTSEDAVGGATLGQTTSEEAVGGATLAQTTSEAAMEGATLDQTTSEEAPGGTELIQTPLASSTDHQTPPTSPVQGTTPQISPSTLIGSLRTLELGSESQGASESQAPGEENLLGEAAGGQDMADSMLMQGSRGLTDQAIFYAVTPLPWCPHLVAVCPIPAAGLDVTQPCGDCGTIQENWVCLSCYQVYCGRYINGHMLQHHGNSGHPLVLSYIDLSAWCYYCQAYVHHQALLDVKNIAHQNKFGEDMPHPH

In experiment [1] the target is T1, Cryptochrome 2 (endogenous, MCF7 cells) (human (endogenous in MCF7)) (UniProt Q49AN0).
T1 sequence: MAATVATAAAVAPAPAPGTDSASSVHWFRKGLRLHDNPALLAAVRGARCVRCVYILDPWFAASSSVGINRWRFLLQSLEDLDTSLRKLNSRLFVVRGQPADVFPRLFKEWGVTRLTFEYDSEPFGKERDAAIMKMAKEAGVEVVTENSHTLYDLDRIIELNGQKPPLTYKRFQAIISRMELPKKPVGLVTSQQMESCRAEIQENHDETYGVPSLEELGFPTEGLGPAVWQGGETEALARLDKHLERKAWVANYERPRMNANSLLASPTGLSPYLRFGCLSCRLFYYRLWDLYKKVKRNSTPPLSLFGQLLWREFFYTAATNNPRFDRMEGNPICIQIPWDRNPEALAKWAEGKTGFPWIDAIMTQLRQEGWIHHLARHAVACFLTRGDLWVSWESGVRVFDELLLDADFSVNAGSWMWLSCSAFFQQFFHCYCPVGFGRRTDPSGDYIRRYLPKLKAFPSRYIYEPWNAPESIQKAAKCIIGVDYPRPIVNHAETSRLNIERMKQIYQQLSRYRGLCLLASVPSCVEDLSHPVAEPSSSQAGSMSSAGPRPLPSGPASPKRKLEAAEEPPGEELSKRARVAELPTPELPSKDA
Briefly: co-IP; endogenous proteins in MCF7 cell extract (TNE lysis buffer: 20 mM Tris-HCl pH 7.4, 100 mM NaCl, 1 mM EDTA, 0.5% NP-40, 10% glycerol); antibody overnight at 4 °C, Protein A/G magnetic beads 2 h at 4 °C, three washes with TNE; immunoblot.

In experiment [2] the target is T2, Cry2 (exogenous, tagged, expressed in HEK293T cells) (UniProt Q49AN0).
T2 sequence: T1 sequence
Nature of the experiment: co-IP; exogenous (transfected, tagged) proteins in HEK293T cell extract (TNE lysis buffer); antibody overnight at 4 °C, Protein A/G magnetic beads 2 h at 4 °C, three washes with TNE; immunoblot.

For “p300 (endogenous, MCF7 cells) (from UniProt Q09472 1-2414) (enzyme)”, in experiment [1], the binding entry was “binds”. As for “histone deacetylase 6 (endogenous, MCF7 cells) (from UniProt Q9UBN7 1-1215) (enzyme)”, the binding result in experiment [1] is reported as “binds”. For “HA-p300 (from UniProt Q09472 1-2414) (enzyme)”, in experiment [2], the binding result is “binds”. As to “Myc-HDAC6 (from UniProt Q9UBN7 1-1215) (enzyme)”, the binding entry in experiment [2] is “binds”.
